Record: PubChem BioAssay AID1259424 (University of Nebraska Medical Center, 2018)
Purpose: 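Seek colon cancer survival genes behaving like KSR1, using a six-gene signature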 (primary screen). Cells: human HCT116 colon cancer cells. Knock-down reagent: siRNA pool against human genes, 50 nM. Measurement: 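Log2 levels of six mRNAs (branched-DNA multiplex), adjusted by two reference genes and the non-targeting median, then scored against the average KSR1 knockdown pattern as Pearson r and euclidean distance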. Scale: mean correlation with KSR1 profile and KSR1 correlation: higher = expression change more like KSR1 knockdown; mean distance from KSR1 profile: higher = expression change less like KSR1 knockdown.
In all, the deposit lists about 14,000 reagents; below is an unselected part. 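Higher correlation or smaller distance means closer resemblance to KSR1 loss; control wells, including KSR1 knockdowns, recur on many plates.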 Not given: the time to read-out.

gene knocked down | mean correlation with KSR1 profile | mean distance from KSR1 profile | KSR1 correlation, replicate 1 | KSR1 correlation, replicate 2 | KSR1 correlation, replicate 3
PHKB (phosphorylase kinase regulatory subunit beta) | -0.0648 | 1.82 | -0.12 | -0.0499 | -0.0924
ORC3 (origin recognition complex subunit 3) | -0.473 | 1.32 | -0.156 | -0.706 | -0.278
FCER2 (Fc epsilon receptor II) | 0.0216 | 1.14 | 0.202 | -0.48 | 0.35
TMEM45A (transmembrane protein 45A) | -0.256 | 1.58 | -0.401 | -0.484 | -0.216
DNAH7 (dynein axonemal heavy chain 7) | -0.153 | 2.41 | -0.199 | -0.373 | 0.0274
CEP104 (centrosomal protein 104) | -0.342 | 1.57 | -0.21 | -0.435 | -0.163
ADAM15 (ADAM metallopeptidase domain 15) | -0.0554 | 2.91 | 0.12 | -0.105 | -0.276
ZSCAN18 (zinc finger and SCAN domain containing 18) | 0.13 | 2.25 | 0.161 | -0.0904 | 0.099
SNRPC (small nuclear ribonucleoprotein polypeptide C) | -0.58 | 4.66 | -0.518 | -0.578 | -0.632
AMACR (alpha-methylacyl-CoA racemase) | 0.0232 | 2.72 | -0.0204 | 0.178 | -0.0316
SREBF2 (sterol regulatory element binding transcription factor 2) | 0.299 | 2.02 | 0.132 | 0.237 | 0.376
RPL8 (ribosomal protein L8) | 0.473 | 4.46 | 0.409 | 0.565 | 0.379
GPR12 (G protein-coupled receptor 12) | 0.322 | 1.94 | 0.303 | 0.477 | 0.128
CLCN6 (Cl-/H+ antiporter 6) | -0.225 | 2.84 | -0.22 | -0.319 | -0.365
BCAR1 (BCAR1 scaffold protein, Cas family member) | -0.226 | 2.39 | -0.387 | -0.128 | -0.224
USH1C (USH1 protein network component harmonin) | -0.157 | 2.62 | -0.0675 | -0.205 | -0.203
DVL2 (dishevelled segment polarity protein 2) | 0.00717 | 2.62 | -0.368 | 0.0358 | 0.124
CCL21 (C-C motif chemokine ligand 21) | 0.152 | 1.51 | 0.299 | 0.0554 | 0.121
MSN (moesin) | -0.596 | 2.05 | -0.431 | -0.734 | -0.216
SRSF1 (serine and arginine rich splicing factor 1) | 0.103 | 3.92 | 0.135 | 0.0247 | -0.0314
VAX2 (ventral anterior homeobox 2) | 0.3 | 2.22 | 0.193 | 0.467 | 0.326

A run of entries from the list above, for reference:
gene knocked down | mean correlation with KSR1 profile | mean distance from KSR1 profile | KSR1 correlation, replicate 1 | KSR1 correlation, replicate 2 | KSR1 correlation, replicate 3
ADAM15 (ADAM metallopeptidase domain 15) | -0.0554 | 2.91 | 0.12 | -0.105 | -0.276
ZSCAN18 (zinc finger and SCAN domain containing 18) | 0.13 | 2.25 | 0.161 | -0.0904 | 0.099
SNRPC (small nuclear ribonucleoprotein polypeptide C) | -0.58 | 4.66 | -0.518 | -0.578 | -0.632
AMACR (alpha-methylacyl-CoA racemase) | 0.0232 | 2.72 | -0.0204 | 0.178 | -0.0316

The listing continues.
gene knocked down | mean correlation with KSR1 profile | mean distance from KSR1 profile | KSR1 correlation, replicate 1 | KSR1 correlation, replicate 2 | KSR1 correlation, replicate 3
CD1D (CD1d molecule) | 0.451 | 1.94 | 0.49 | 0.418 | 0.431
PMPCA (peptidase, mitochondrial processing subunit alpha) | -0.0803 | 3.46 | -0.236 | 0.00406 | -0.045
EVX1 (even-skipped homeobox 1) | 0.667 | 3.17 | 0.066 | 0.761 | 0.433
LYNX1 (Ly6/neurotoxin 1) | -0.358 | 3.23 | -0.458 | -0.437 | -0.347
ZNF41 (zinc finger protein 41) | 0.036 | 3.18 | -0.0804 | -0.177 | 0.446
PAMR1 | -0.0937 | 1.89 | -0.0117 | -0.133 | -0.164
HMGB1P10 (high mobility group box 1 pseudogene 10) | 0.37 | 0.983 | 0.573 | -0.207 | -0.0334
TPH1 (tryptophan hydroxylase 1) | -0.345 | 2.68 | -0.0784 | -0.577 | -0.235
CST3 (cystatin C) | -0.026 | 2.38 | -0.0196 | -0.0136 | -0.0694
SSC4D | 0.116 | 2.57 | -0.805 | 0.238 | 0.7
HSPB7 (heat shock protein family B (small) member 7) | 0.102 | 1.67 | 0.298 | 0.0523 | 0.0691
CMTM6 (CKLF like MARVEL transmembrane domain containing 6) | -0.337 | 1.46 | -0.0716 | -0.439 | -0.238
ITGAV (integrin subunit alpha V) | 0.0112 | 3.04 | 0.231 | -0.157 | 0.0827
SPART (spartin) | -0.0118 | 3.02 | -0.135 | 0.0173 | 0.0146
NKX2-5 (NK2 homeobox 5) | 0.259 | 1.18 | 0.291 | 0.708 | -0.0628
SFRP1 (secreted frizzled related protein 1) | 0.524 | 1.75 | 0.679 | 0.275 | 0.509
CCNY (cyclin Y) | 0.0464 | 1.12 | -0.438 | 0.0439 | 0.409
NSUN2 (NOP2/Sun RNA methyltransferase 2) | -0.446 | 2.41 | -0.272 | -0.726 | -0.476
SLC19A2 | -0.0638 | 1.77 | -0.0978 | -0.292 | 0.0642
PLEKHG4 (pleckstrin homology and RhoGEF domain containing G4) | -0.159 | 4.18 | -0.0369 | -0.255 | -0.228
COPG1 (coat protein complex I subunit gamma 1) | 0.253 | 2.57 | 0.647 | 0.0296 | 0.169
HCLS1 (hematopoietic cell-specific Lyn substrate 1) | 0.294 | 2.34 | 0.247 | 0.081 | 0.458
ESR1 (estrogen receptor 1) | -0.134 | 3.04 | 0.4 | -0.329 | -0.222
GARS1 (glycyl-tRNA synthetase 1) | 0.803 | 2.11 | 0.746 | 0.795 | 0.828
CDC34 (cell division cycle 34, ubiquitin conjugating enzyme) | -0.212 | 1.71 | -0.243 | -0.226 | -0.277
MATN1 (matrilin 1) | -0.128 | 3.69 | -0.0251 | -0.173 | -0.215
SHC2 (SHC adaptor protein 2) | -0.249 | 1.91 | -0.338 | -0.177 | -0.101
KLHL25 (kelch like family member 25) | 0.0502 | 0.975 | 0.15 | -0.581 | 0.0724
NSA2 (NSA2 ribosome biogenesis factor) | -0.585 | 2.76 | -0.692 | -0.255 | -0.411
